Screen size: about 400,000 compounds; about 13,000 (3.2%) were called active. This list was built around the results that the source calls inconclusive (neither active nor inactive); the mix of calls is not that of the screen. Calls follow the shape of the dose curve; as a rule, active = well fitted cell-killing curve with a large enough effect; inconclusive = small, poorly fitted or top-dose-only effect, or effect the other way; inactive = flat fitted curve, though single readings scatter. A potency beside an inconclusive call is a rough fit, not a confirmed value.
Test: qHTS assay for MDR1-selective chemotherapeutics: Primary screen using the drug-selected MDR subline cells KB-V1; also: nearly all actives have a fitted effect of over 60% in size
Conditions: KB-V1 MDR cells viability, CellTiter-Glo, 72 h; activity change, negative = cytotoxicity: at 46.1 µM (top of the series)
How it was run: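 KB-V1 cells (P-gp-expressing MDR subline of KB-3-1) in phenol-red-free DMEM with 10% FBS were exposed to library compounds over a concentration series for 72 h at 37 degrees C. Viability read by CellTiter-Glo luminescence; concentration-effect curves fitted after normalization.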
In the case of `Cc1ccc(/C=C/C(=O)Nc2ccc(S(=O)(=O)Nc3ncccn3)cc2)cc1`, the Potency is reported as inconclusive: 0.0058 µM [cytotoxic, full curve, poor fit].
With `C=C1CCN([C@H](C(=O)NCc2ccc(Cl)cc2)C(C)C)S(=O)(=O)c2ccccc21` the “activity change, negative = cytotoxicity” value was inactive: 15%.
In the case of `CC(C)(C)c1nnc(N/N=C/c2cc(Br)ccc2O)n(N)c1=O`, the activity change, negative = cytotoxicity is reported as inconclusive: -40.7%.
With `CCOC(=O)N1CCC(=NNc2ccc(S(N)(=O)=O)cc2[N+](=O)[O-])CC1` the Potency was inconclusive: 32.6 µM [rising, single point].
With `CC(=O)Nc1cccc(-c2cc(NC(C)=O)c3ncc(-c4cccc(C(F)(F)F)c4)n3c2)c1` the Potency was inconclusive: 29.1 µM [cytotoxic, single point].
With `CC1CCN(S(=O)(=O)c2ccc(N=NC3=C(O)CC(C)(C)CC3=O)cc2)CC1` the “activity change, negative = cytotoxicity” value was inactive: -5.7%.
For `O=C(CSc1oc(-c2ccccc2)nc1S(=O)(=O)c1ccc(Cl)cc1)Nc1ccc(F)cc1`, the Potency was inconclusive: 29.1 µM [rising, single point].
With `CN(C)S(=O)(=O)c1cccc(NC(=O)CC23CC4CC(CC(C4)C2)C3)c1` the “activity change, negative = cytotoxicity” value was inactive: 4.41%.
For `CCOC(=O)c1c(NC(=S)N2CCOCC2)sc(C)c1C`, the Potency was inconclusive: 29.1 µM [cytotoxic, single point].
For `CCOC(=O)c1sc(NC(=O)CSc2nc(C)cc(C)c2C#N)c(C#N)c1C`, the “activity change, negative = cytotoxicity” value was inactive: 0%.
With `O=C(COC(=O)C1CCN(S(=O)(=O)c2cccc3cccnc23)CC1)c1ccccc1` the Potency was inconclusive: 29.1 µM [rising, single point].
In the case of `CCCCC[C@H]1CN(C2CCCCC2)C(=O)[C@@H]1CC(=O)NCc1ccccc1`, the Potency is reported as inconclusive: 8.2 µM [cytotoxic, partial curve].
With `Cn1c(=O)oc2cc(S(=O)(=O)N3CCCC(C(=O)NCCc4ccc(Cl)cc4)C3)ccc21` (centres undefined) the “activity change, negative = cytotoxicity” value was inactive: -13.4%.
With `COc1ccc2nc(N3CCN(C(=O)C4COc5ccccc5O4)CC3)sc2c1` (centres undefined) the Potency was inconclusive: 29.1 µM [cytotoxic, single point].
With `Oc1[nH]c2ccccc2c1N=Nc1nc(Nc2ccccc2)nc(N2CCOCC2)n1` the Potency was inconclusive: 18.4 µM [cytotoxic, single point].
For `CCN(CC)c1nc(N)c(C#N)c(CC#N)c1C#N`, the Potency was inconclusive: 29.1 µM [cytotoxic, single point].
For `COc1ccc2nc(C)cc(SCC(=O)N/N=C/c3cccc4ccccc34)c2c1`, the Potency was active: 5.8 µM.
With `COC(=O)C1CCN(c2ccc([N+](=O)[O-])cc2)CC1` the “activity change, negative = cytotoxicity” value was inactive: 18.8%.
For `Cc1ccc(-c2csc3ncnc(SCC(=O)NCc4ccc5c(c4)OCO5)c23)cc1`, the Potency was inconclusive: 4.61 µM [cytotoxic, partial curve].
With `NC(=O)c1sc2nc3c(cc2c1N)CCC3` the Potency was inconclusive: 18.4 µM [cytotoxic, partial curve, poor fit].
For `CCn1c(=O)c([N+](=O)[O-])c(N2CCN(Cc3ccc4c(c3)OCO4)CC2)c2ccccc21`, the Potency was inconclusive: 29.1 µM [cytotoxic, single point].
In the case of `O=C(NCc1ccccc1Cl)C1CCCN(S(=O)(=O)c2cccc3nsnc23)C1` (centres undefined), the Potency is reported as inconclusive: 16.4 µM [cytotoxic, partial curve].
For `COCCNc1nc2nonc2nc1N1CCC(N(C)C)C1` (centres undefined), the Potency was inconclusive: 29.1 µM [rising, single point].
In the case of `O=C(CN(c1ccc(F)cc1)S(=O)(=O)c1ccc2c(c1)OCCO2)N1CCOCC1`, the Potency is reported as inconclusive: 29.1 µM [rising, single point].
In the case of `CCN(CC)S(=O)(=O)c1cc(NC(=O)C2=COCCO2)ccc1Cl`, the Potency is reported as inconclusive: 9.2 µM [cytotoxic, partial curve].
For `O=C(Nc1ccc(F)cc1)c1cccnc1N1CCCCC1`, the Potency was inconclusive: 20.6 µM [cytotoxic, single point].
In the case of `O=C(Nc1ccccc1Br)C1CCC(=O)N1Cc1ccccc1Cl` (centres undefined), the Potency is reported as active: 20.6 µM.
With `COc1cccc(NC(=O)CN2CCN(c3nc(-c4cccc(OC)c4)cs3)CC2)c1` the Potency was inconclusive: 11.6 µM [cytotoxic, partial curve].
In the case of `CCOC(=O)C1=C(C)Nc2ncnn2C1c1ccc(N(C)C)cc1` (centres undefined), the Potency is reported as inconclusive: 16.4 µM [cytotoxic, partial curve].
For `COc1cc(NC2c3ccccc3C(=O)N2Cc2ccccc2Cl)cc(OC)c1OC` (centres undefined), the Potency was inconclusive: 9.2 µM [cytotoxic, partial curve, poor fit].
With `COc1ccc(O)c(C(c2c(C)[nH][nH]c2=O)c2c(C)[nH][nH]c2=O)c1` the “activity change, negative = cytotoxicity” value was inactive: 3.89%.
With `COc1cc(NC(=O)CSc2nnnn2Cc2ccccc2)cc(OC)c1` the Potency was inconclusive: 3.66 µM [cytotoxic, partial curve, poor fit].
For `CC(=O)Nc1ccccc1C(=O)C(=O)Nc1ccc(C)c(C)c1`, the Potency was inconclusive: 18.4 µM [cytotoxic, single point].
In the case of `Cc1cccc(NC(=S)NC(C)C(c2ccccc2)N2CCN(C)CC2)c1C` (centres undefined), the Potency is reported as inconclusive: 10.3 µM [cytotoxic, partial curve].
For `Nc1ccn([C@@H]2O[C@H](CNC(=O)[C@@H](Cc3cn(COCc4ccccc4)cn3)NC=O)[C@@H](O)[C@H]2O)c(=O)n1`, the “activity change, negative = cytotoxicity” value was inactive: -2.43%.
In the case of `CCCCCOc1ccc(C(=O)NCC2(c3ccccc3)CCOCC2)cc1`, the Potency is reported as active: 23.1 µM.
With `CCCCn1c(N)c(N(CC)C(=O)c2cc(C)cc(C)c2)c(=O)[nH]c1=O` the Potency was inconclusive: 0.0065 µM [cytotoxic, full curve].
For `COc1ccc(CNC(=O)C2CCCN2S(=O)(=O)c2ccc(Cl)cc2)cc1` (centres undefined), the Potency was inconclusive: 5.17 µM [cytotoxic, full curve].
With `CCOC(=O)c1c(C)[nH]c(C)c1S(=O)(=O)N1CCC(C(=O)N2CCN(c3cccc(Cl)c3)CC2)CC1` the Potency was inconclusive: 18.4 µM [rising, partial curve].
With `CC(C)c1ccc(C(=O)NCCCN2CCN(CCCNC(=O)c3ccc(C(C)C)cc3)CC2)cc1` the Potency was inconclusive: 20.6 µM [cytotoxic, single point].
For `C[C@H](CO)N1C[C@H](C)[C@@H](CN(C)S(=O)(=O)c2ccc(-c3ccccc3)cc2)OCc2cn(nn2)CCCC1=O`, the “activity change, negative = cytotoxicity” value was inactive: -8.83%.
With `Cc1sc2ncnc(SCC(=O)c3cccs3)c2c1C` the Potency was active: 16.4 µM.
In the case of `CCOC(=O)c1cnn2c(SC)ncnc12`, the “activity change, negative = cytotoxicity” value is reported as inactive: 6.59%.
In the case of `O=C(NCCN1CCC(Cc2ccccc2)CC1)C1CCN(S(=O)(=O)N2CCC3(CC2)OCCO3)CC1`, the “activity change, negative = cytotoxicity” value is reported as inactive: -9.14%.
In the case of `O=C1[C@@H](c2ccccc2)CC[C@@H]2C=CC[C@H]3CCN1[C@@H]32`, the Potency is reported as inconclusive: 2.59 µM [rising, partial curve, poor fit].
For `Cc1ccc(NC(=O)CCN2CC(C)OC(C)C2)cc1C` (centres undefined), the “activity change, negative = cytotoxicity” value was inactive: 4.73%.
In the case of `O=C(NCCCc1ccccc1)c1ccccc1O`, the Potency is reported as inconclusive: 20.6 µM [cytotoxic, partial curve].
With `COc1ccc(S(=O)(=O)n2ccc(-c3ccc4c(c3)CCC(C)(C)O4)n2)cc1` the Potency was active: 11.6 µM.
In the case of `N#CC1(Nc2ccc(-c3ccc(Cl)cc3)cc2)CCCC1`, the Potency is reported as inconclusive: 20.6 µM [cytotoxic, single point].
With `Cc1ccccc1Cn1c(=N)n(CC(O)c2ccco2)c2ccccc21` (centres undefined) the Potency was inconclusive: 32.6 µM [cytotoxic, single point].
In the case of `COc1cc(S(=O)(=O)N2CCN(c3ccccc3)CC2)ccc1Cl`, the Potency is reported as active: 23.1 µM.
With `Cc1cccc(NC(=O)c2cc(=O)c3ccccc3o2)c1` the Potency was inconclusive: 32.6 µM [cytotoxic, single point].
With `CC(=O)NS(=O)(=O)c1ccc(NC(=O)CC23CC4CC(CC(Br)(C4)C2)C3)cc1` the “activity change, negative = cytotoxicity” value was inactive: -1.27%.
For `C#CCn1ccc(O)c(Cc2c(F)cccc2Cl)c1=O`, the Potency was inconclusive: 29.1 µM [rising, single point].
For `CCO[C@H]1OC(C(=O)NCc2ccccc2)=C[C@@H](c2ccc(Br)cc2)[C@@H]1CCCO`, the Potency was inconclusive: 0.517 µM [rising, full curve, poor fit].
For `O=C(NC(=S)Nc1ccc(Br)cn1)c1cncc(Br)c1`, the “activity change, negative = cytotoxicity” value was inactive: 12.6%.
In the case of `CC(=O)OC1CCC2C3CCC4=C(CC(F)C(=O)C4)C3CCC12C` (centres undefined), the Potency is reported as inconclusive: 16.4 µM [cytotoxic, single point].
In the case of `CC(C(=O)NCc1ccc(Cl)cc1)n1ccc2cc(S(=O)(=O)N3CCCCCC3)ccc21` (centres undefined), the activity change, negative = cytotoxicity is reported as inconclusive: -23.1%.
In the case of `O=C(Nc1ccccc1)OCCNC1CCCCC1`, the Potency is reported as inconclusive: 8.2 µM [cytotoxic, partial curve].
With `Cn1c(SCC(=O)NCC2CCCO2)ncc(C(=O)Nc2ccc(F)cc2)c1=O` (centres undefined) the “activity change, negative = cytotoxicity” value was inactive: -11.3%.
In the case of `COc1ccc(-c2nnc(SCc3nnc(-c4ccccc4)o3)n2-c2ccccc2)cc1`, the Potency is reported as inconclusive: 3.26 µM [cytotoxic, full curve].
For `N#CC1=C(c2ccccc2)/C(=C/c2ccccc2)OC1=O`, the Potency was inconclusive: 29.1 µM [cytotoxic, single point].
For `CNc1nc(NC)c2cn[nH]c2n1`, the “activity change, negative = cytotoxicity” value was inactive: 1.26%.
With `O=C(CSc1nnc(CCCOc2ccc(Cl)cc2Cl)o1)Nc1ccc(C(=O)O)cc1` the Potency was inconclusive: 18.4 µM [rising, partial curve, poor fit].
For `CCOc1ccc(CCNC(=O)COC(=O)c2cc(OC)c(OC)cc2[N+](=O)[O-])cc1OCC`, the Potency was inconclusive: 7.31 µM [cytotoxic, partial curve].
For `O=S(=O)(c1ccc(Cl)cc1)c1snnc1-c1ccccc1`, the Potency was inconclusive: 5.8 µM [cytotoxic, partial curve].
In the case of `CC1=[N+]([O-])C(C)(C)N(O)C1(C)C`, the “activity change, negative = cytotoxicity” value is reported as inactive: 4.37%.
With `Cn1cc(CNCc2cnc3ccccn23)c(-c2ccc(Oc3ccccc3)cc2)n1` the “activity change, negative = cytotoxicity” value was inactive: 7.41%.
In the case of `Cc1cc(C)c(CN2CCN(Cc3ccc(C)o3)C(CCO)C2)c(-n2cccn2)c1` (centres undefined), the Potency is reported as inconclusive: 3.66 µM [cytotoxic, full curve].

Source: PubChem BioAssay AID1347076 (National Center for Advancing Translational Sciences (NCATS), 2019)
% is scaled to controls: 0 for no effect and ±100 for the full control effect; potency is read from the fitted curve at half-maximal effect.
